Some of the results follow.
Columns and labels:
Experiment in all cases: log2 fold change, soluble protein after heating vs DMSO (PISA); higher = thermal stabilisation; K562 cells, 10 uM, 30 min; active = over 0.2 and 3.5 SD of the protein, either way, in both replicates (recomputed)
saracatinib = compound: CN1CCN(CCOc2cc(OC3CCOCC3)c3c(Nc4c(Cl)ccc5c4OCO5)ncnc3c2)CC1 [saracatinib]
Method in brief: (§1)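 K562 cells at 2×10^6 cells/mL were given 10 μM compound for 30 min. Aliquots then went through 3 min of heating across 48°C-58°C, were pooled, and were extracted in PBS with 0.5% NP-40 at 4°C, and the supernatant after 21,000xg for 90 min was quantified by TMTpro 16plex LC-MS/MS with channel sums equalised. Thermal stability relative to control samples, from duplicates, is given as log2 fold change.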

Sequences of proteins named here, by UniProt entry; tags and fusion partners are left off. A change or cut given only in a name is not applied to a line headed by its entry.
UniProt Q8IYS1: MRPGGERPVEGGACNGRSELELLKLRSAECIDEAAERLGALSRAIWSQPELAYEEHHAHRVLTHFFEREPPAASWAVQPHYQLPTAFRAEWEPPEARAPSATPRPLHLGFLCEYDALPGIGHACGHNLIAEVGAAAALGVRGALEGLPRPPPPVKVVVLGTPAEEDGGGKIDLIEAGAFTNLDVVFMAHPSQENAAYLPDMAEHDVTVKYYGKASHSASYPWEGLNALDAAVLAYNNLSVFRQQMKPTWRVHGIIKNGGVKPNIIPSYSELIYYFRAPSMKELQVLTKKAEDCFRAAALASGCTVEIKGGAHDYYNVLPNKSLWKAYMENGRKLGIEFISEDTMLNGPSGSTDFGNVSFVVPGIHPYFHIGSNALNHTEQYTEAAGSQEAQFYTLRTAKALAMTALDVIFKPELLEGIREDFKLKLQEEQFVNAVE
UniProt Q8NBT0: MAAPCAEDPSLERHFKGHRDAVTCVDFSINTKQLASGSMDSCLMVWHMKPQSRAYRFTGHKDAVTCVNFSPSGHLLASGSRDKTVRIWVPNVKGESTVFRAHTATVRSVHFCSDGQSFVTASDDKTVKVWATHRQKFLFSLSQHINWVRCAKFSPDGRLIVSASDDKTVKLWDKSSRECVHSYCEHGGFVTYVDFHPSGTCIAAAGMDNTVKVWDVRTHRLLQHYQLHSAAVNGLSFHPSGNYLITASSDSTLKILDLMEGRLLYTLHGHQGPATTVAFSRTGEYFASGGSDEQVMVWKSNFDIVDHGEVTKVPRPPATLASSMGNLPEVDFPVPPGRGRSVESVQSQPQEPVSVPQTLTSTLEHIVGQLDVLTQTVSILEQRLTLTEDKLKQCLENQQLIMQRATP
UniProt Q15126: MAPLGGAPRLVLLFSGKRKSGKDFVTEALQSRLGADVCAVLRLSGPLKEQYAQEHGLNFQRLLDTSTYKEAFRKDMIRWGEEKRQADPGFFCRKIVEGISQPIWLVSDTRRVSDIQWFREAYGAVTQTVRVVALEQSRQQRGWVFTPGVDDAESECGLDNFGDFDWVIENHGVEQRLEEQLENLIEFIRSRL
UniProt Q8IWE5: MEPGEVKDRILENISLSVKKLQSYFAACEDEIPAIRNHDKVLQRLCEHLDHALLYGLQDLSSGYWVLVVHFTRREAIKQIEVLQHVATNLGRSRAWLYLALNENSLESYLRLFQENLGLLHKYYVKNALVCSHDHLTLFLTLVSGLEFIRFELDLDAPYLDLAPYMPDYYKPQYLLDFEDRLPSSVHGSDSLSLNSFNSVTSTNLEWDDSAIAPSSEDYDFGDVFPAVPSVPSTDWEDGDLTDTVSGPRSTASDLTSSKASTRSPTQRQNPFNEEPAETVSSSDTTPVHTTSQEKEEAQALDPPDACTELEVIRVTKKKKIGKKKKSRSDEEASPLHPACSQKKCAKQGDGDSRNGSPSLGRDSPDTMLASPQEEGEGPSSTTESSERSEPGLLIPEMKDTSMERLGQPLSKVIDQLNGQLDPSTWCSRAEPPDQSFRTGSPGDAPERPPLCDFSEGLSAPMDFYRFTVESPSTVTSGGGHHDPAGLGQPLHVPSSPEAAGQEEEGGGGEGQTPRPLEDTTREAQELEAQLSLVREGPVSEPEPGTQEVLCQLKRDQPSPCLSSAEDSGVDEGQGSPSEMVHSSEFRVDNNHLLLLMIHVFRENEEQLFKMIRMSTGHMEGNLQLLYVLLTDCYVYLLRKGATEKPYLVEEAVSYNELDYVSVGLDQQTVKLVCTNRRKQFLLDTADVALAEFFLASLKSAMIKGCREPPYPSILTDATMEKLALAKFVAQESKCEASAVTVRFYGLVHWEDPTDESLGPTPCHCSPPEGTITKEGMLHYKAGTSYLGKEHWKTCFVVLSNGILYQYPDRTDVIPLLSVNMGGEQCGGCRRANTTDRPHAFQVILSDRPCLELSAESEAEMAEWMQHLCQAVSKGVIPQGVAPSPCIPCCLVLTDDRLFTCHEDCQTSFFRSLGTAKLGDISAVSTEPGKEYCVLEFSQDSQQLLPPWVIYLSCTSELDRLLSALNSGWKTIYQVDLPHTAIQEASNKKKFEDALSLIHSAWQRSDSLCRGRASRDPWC
UniProt Q08752, whole entry, looked up: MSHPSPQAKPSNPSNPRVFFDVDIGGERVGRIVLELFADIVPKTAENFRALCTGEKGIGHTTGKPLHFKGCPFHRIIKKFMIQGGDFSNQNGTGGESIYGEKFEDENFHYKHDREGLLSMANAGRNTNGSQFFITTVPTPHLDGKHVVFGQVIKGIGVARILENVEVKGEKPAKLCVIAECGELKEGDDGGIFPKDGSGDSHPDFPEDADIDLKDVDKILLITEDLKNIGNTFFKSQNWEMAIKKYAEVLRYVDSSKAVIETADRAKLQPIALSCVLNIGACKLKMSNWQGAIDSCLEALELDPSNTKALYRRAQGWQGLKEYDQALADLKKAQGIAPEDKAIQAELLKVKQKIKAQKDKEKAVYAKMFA
UniProt Q9H5K3: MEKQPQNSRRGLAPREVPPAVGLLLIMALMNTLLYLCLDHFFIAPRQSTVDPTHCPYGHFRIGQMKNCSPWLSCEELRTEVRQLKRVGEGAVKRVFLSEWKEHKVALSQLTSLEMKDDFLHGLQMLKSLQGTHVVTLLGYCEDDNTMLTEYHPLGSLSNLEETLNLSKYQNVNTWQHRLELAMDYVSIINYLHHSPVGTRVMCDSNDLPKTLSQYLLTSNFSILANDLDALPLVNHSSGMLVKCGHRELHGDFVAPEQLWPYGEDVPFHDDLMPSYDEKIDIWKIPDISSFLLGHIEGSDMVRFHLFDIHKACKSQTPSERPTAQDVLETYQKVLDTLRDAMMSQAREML
UniProt P05423: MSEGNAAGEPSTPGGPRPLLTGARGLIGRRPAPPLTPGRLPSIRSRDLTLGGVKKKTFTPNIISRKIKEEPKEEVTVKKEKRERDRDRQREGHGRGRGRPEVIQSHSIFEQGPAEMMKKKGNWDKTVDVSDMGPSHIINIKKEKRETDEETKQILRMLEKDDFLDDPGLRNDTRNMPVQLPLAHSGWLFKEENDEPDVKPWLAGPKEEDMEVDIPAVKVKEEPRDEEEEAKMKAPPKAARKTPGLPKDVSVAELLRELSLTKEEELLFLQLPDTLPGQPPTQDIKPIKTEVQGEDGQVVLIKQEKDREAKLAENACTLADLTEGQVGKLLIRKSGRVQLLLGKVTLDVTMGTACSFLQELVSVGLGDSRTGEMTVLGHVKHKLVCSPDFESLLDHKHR
UniProt Q8IY17: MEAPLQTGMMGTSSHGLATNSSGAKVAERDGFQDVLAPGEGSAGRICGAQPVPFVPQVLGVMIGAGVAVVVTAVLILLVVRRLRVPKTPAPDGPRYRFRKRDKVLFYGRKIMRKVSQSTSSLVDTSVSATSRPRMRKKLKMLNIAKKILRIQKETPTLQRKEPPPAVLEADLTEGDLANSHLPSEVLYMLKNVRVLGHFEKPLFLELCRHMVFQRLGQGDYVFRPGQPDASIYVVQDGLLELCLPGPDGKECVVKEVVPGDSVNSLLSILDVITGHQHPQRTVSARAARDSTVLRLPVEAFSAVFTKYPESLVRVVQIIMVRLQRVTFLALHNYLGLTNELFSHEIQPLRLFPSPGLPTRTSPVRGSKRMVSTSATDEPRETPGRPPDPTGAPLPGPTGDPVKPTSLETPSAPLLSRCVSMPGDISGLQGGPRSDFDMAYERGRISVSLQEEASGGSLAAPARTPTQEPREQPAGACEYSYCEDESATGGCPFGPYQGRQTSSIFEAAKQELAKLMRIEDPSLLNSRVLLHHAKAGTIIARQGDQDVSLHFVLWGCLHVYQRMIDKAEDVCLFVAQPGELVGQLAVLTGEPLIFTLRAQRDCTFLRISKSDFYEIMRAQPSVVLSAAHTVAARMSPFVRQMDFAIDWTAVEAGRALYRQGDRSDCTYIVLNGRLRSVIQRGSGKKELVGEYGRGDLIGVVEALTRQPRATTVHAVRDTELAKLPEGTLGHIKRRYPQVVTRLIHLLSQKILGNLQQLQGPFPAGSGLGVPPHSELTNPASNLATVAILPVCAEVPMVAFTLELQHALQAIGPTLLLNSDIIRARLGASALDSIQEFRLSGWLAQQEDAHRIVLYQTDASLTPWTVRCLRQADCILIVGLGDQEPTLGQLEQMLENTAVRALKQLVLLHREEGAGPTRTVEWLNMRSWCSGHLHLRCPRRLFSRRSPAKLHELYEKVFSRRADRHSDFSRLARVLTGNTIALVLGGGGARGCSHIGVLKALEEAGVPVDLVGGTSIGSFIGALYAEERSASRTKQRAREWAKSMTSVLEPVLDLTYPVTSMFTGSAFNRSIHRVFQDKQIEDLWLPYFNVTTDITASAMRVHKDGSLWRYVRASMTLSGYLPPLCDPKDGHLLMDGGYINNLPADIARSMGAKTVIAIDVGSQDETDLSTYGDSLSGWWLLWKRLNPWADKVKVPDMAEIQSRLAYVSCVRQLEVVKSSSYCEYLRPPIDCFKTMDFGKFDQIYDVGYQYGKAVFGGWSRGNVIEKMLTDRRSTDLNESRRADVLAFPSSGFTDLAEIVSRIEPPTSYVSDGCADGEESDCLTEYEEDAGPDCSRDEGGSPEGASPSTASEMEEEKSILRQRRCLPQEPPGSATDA
UniProt Q96HA1, whole entry, looked up: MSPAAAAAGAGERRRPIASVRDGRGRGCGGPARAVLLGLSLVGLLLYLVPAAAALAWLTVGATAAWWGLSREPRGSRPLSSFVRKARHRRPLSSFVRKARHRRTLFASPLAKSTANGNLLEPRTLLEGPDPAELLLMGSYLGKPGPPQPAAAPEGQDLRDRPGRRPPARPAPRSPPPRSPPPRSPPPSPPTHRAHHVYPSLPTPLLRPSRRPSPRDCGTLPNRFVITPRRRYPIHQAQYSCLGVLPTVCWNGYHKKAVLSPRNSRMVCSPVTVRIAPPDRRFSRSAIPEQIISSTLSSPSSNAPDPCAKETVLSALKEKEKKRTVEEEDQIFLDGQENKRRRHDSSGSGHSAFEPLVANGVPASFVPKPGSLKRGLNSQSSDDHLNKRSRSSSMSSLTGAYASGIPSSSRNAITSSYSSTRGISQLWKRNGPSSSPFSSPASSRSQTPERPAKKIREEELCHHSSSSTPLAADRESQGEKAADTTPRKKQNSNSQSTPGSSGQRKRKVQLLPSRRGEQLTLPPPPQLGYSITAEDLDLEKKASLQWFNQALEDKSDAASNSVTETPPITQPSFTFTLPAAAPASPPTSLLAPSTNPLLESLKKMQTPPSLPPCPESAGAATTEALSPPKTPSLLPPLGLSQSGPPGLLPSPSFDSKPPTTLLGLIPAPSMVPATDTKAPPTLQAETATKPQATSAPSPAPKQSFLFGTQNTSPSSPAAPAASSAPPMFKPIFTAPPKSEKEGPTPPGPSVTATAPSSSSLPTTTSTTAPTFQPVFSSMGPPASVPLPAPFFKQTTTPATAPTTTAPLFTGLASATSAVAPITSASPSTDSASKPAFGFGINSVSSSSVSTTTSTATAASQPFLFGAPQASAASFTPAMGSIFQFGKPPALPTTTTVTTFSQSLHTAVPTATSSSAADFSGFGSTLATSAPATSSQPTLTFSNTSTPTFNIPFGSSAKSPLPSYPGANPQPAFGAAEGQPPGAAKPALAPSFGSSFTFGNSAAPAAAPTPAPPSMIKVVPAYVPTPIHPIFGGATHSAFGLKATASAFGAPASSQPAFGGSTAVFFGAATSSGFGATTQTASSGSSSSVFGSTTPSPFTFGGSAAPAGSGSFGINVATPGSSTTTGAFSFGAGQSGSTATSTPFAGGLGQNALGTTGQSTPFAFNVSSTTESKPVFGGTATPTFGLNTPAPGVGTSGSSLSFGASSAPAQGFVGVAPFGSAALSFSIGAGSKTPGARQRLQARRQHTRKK
UniProt Q14181: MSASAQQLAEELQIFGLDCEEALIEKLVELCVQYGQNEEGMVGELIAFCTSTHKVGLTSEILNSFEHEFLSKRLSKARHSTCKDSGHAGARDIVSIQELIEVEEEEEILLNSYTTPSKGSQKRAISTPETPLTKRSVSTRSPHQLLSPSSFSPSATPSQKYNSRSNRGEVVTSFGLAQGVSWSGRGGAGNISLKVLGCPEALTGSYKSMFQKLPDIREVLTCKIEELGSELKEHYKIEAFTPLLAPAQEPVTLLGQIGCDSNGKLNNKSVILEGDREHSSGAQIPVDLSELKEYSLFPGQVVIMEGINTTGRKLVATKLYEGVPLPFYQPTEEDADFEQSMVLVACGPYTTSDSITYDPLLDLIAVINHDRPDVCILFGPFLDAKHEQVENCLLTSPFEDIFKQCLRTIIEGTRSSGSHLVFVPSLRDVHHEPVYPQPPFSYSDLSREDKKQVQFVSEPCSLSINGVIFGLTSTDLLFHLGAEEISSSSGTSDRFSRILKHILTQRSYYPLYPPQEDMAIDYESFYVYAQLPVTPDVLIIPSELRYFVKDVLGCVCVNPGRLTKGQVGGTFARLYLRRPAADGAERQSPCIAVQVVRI

sotrastaurin = compound: CN1CCN(c2nc(C3=C(c4c[nH]c5ccccc45)C(=O)NC3=O)c3ccccc3n2)CC1 [sotrastaurin]
Method in brief: as §1

Tubastatin A = compound: CN1CCc2c(c3ccccc3n2Cc2ccc(C(=O)NO)cc2)C1 [Tubastatin A]
Method in brief: as §1

[1] = compound: CNC(=O)C1=CC=CC=C1NC2=NC(=NC=C2Cl)NC3=C(C=C(C=C3)N4CCOCC4)OC
Method in brief: as §1

defactinib = compound: CNC(=O)c1ccc(Nc2ncc(C(F)(F)F)c(NCc3nccnc3N(C)S(C)(=O)=O)n2)cc1 [defactinib]
Method in brief: as §1

rucaparib = compound: CNCc1ccc(-c2[nH]c3cc(F)cc4c3c2CCNC4=O)cc1 [rucaparib]
Method in brief: as §1

[2] = compound: CNc1nc(-c2ccc3c(N)n[nH]c3c2)cc(N2C[C@@H](C(=O)NC3CCCCC3)CC[C@H]2C)n1
Method in brief: as §1

encorafenib = compound: COC(=O)N[C@@H](C)CNc1nccc(-c2cn(C(C)C)nc2-c2cc(Cl)cc(NS(C)(=O)=O)c2F)n1 [encorafenib]
Method in brief: as §1

[3] = compound: COC(=O)[C@H](CCSC)NC(=O)C1=C(C=C(C=C1)NC[C@H](CS)N)C2=CC=CC=C2
Method in brief: as §1

[4] = compound: COC1=CC=C(C=C1)CN2C=CC3=C2C=C(C=C3)C(=O)NO
Method in brief: as §1

filanesib = compound: CON(C)C(=O)N1N=C(c2cc(F)ccc2F)S[C@@]1(CCCN)c1ccccc1 [filanesib]
Method in brief: as §1

zotarolimus = compound: CO[C@H]1C[C@@H]2CC[C@@H](C)[C@@](O)(O2)C(=O)C(=O)N2CCCC[C@H]2C(=O)O[C@H]([C@H](C)C[C@@H]2CC[C@H](n3cnnn3)[C@H](OC)C2)CC(=O)[C@H](C)/C=C(\C)[C@@H](O)[C@@H](OC)C(=O)[C@H](C)C[C@H](C)/C=C/C=C/C=C/1C [zotarolimus]
Method in brief: as §1

idasanutlin = compound: COc1cc(C(=O)O)ccc1NC(=O)[C@@H]1N[C@@H](CC(C)(C)C)[C@](C#N)(c2ccc(Cl)cc2F)[C@H]1c1cccc(Cl)c1F [idasanutlin]
Method in brief: as §1

alisertib = compound: COc1cc(Nc2ncc3c(n2)-c2ccc(Cl)cc2C(c2c(F)cccc2OC)=NC3)ccc1C(=O)O [alisertib]
Method in brief: as §1

[5] = compound: COc1cc2nc(-c3cc(F)ccc3O)nc(N[C@@H]3CNC[C@H]3C(C)(C)O)c2cc1OC
Method in brief: as §1

gefitinib = compound: COc1cc2ncnc(Nc3ccc(F)c(Cl)c3)c2cc1OCCCN1CCOCC1 [gefitinib]
Method in brief: as §1

[6] = compound: COc1cccc2cc(-c3nc([C@H]4CC[C@H](C(=O)O)CC4)n4ncnc(N)c34)[nH]c12
Method in brief: as §1

lapatinib = compound: CS(=O)(=O)CCNCc1ccc(-c2ccc3ncnc(Nc4ccc(OCc5cccc(F)c5)c(Cl)c4)c3c2)o1 [lapatinib]
Method in brief: as §1

pictilisib = compound: CS(=O)(=O)N1CCN(Cc2cc3nc(-c4cccc5[nH]ncc45)nc(N4CCOCC4)c3s2)CC1 [pictilisib]
Method in brief: as §1

alvocidib = compound: CN1CC[C@H](c2c(O)cc(O)c3c(=O)cc(-c4ccccc4Cl)oc23)[C@H](O)C1 [alvocidib]
Method in brief: as §1

Target | log2 fold change (saracatinib) | log2 fold change (sotrastaurin) | log2 fold change (Tubastatin A) | log2 fold change [1] | log2 fold change (defactinib) | log2 fold change (rucaparib) | log2 fold change [2] | log2 fold change (encorafenib) | log2 fold change [3] | log2 fold change [4] | log2 fold change (filanesib) | log2 fold change (zotarolimus) | log2 fold change (idasanutlin) | log2 fold change (alisertib) | log2 fold change [5] | log2 fold change (gefitinib) | log2 fold change [6] | log2 fold change (lapatinib) | log2 fold change (pictilisib) | log2 fold change (alvocidib)
POLR2D (UniProt O15514) | inactive: 0.064 | inactive: 0.015 | inactive: -0.064 | inactive: -0.114 | inactive: 0.165 | inactive: 0.056 | inactive: 0.026 | inactive: 0.003 | inactive: -0.038 | inactive: 0.02 | inactive: 0.009 | inactive: -0.029 | inactive: -0.083 | inactive: -0.159 | inactive: -0.021 | inactive: -0.001 | inactive: 0.043 | inactive: 0.017 | inactive: -0.026 | 
PM20D2 (UniProt Q8IYS1) | inactive: -0.026 | inactive: 0.09 | inactive: -0.041 | inactive: -0.016 |  |  | inactive: 0.069 |  |  |  | inactive: -0.48 |  |  |  |  |  |  |  |  | 
POC1A (UniProt Q8NBT0) | inactive: -0.251 |  | inactive: 0.012 |  | inactive: 0.123 | inactive: 0.379 | inactive: 0.197 | inactive: -0.022 | inactive: 0.052 | inactive: -0.289 |  | inactive: -0.058 | inactive: 0.095 | inactive: -0.073 |  |  | inactive: 0.304 |  |  | inactive: -0.008
POLR2I (UniProt P36954) | inactive: 0.134 | inactive: 0.033 | inactive: -0.266 | inactive: 0.009 | inactive: 0.141 | inactive: 0.162 | inactive: 0.02 | inactive: 0.015 | inactive: 0.023 | inactive: -0.012 | inactive: 0.041 | inactive: -0.017 | inactive: 0.029 | inactive: 0.061 | inactive: 0.076 | inactive: -0.003 | inactive: 0.062 | inactive: -0.006 | inactive: -0.041 | 
PMVK (UniProt Q15126) | inactive: -0.021 | inactive: -0.003 | inactive: 0.229 | inactive: -0.051 | inactive: 0.02 |  | inactive: -0.039 |  | inactive: -0.368 |  | inactive: 0.198 | inactive: 0.083 | inactive: 0.064 | inactive: 0.047 |  | inactive: -0.189 | inactive: -0.144 |  | inactive: 0.073 | 
PLSCR1 (UniProt O15162) | inactive: 0.052 | inactive: 0.024 | inactive: 0.025 | inactive: -0.058 | inactive: 0.006 | inactive: -0.015 | inactive: 0.082 | inactive: -0.006 | inactive: 0.006 | inactive: -0.017 | inactive: 0.01 | inactive: -0.012 | inactive: 0.033 | inactive: -0.006 | inactive: -0.046 | inactive: 0.016 | inactive: 0.145 | inactive: 0.051 | inactive: 0.037 | 
POTEI (UniProt P0CG38) | inactive: 0.108 | inactive: 0.066 | inactive: -0.012 | inactive: -0.02 | inactive: -0.026 | inactive: -0.049 | inactive: -0.014 | inactive: -0.007 | inactive: -0.016 | inactive: 0.033 | inactive: 0.04 | inactive: 0.025 | inactive: -0.007 | inactive: 0.037 | inactive: -0.003 | inactive: 0.015 | inactive: 0.067 | inactive: -0.006 | inactive: 0.012 | 
PLEKHM2 (UniProt Q8IWE5) | inactive: -0.002 | inactive: -0.047 | inactive: 0.029 | inactive: -0.215 | inactive: -0.054 | inactive: -0.087 | inactive: -0.019 | inactive: 0.058 | inactive: -0.014 | inactive: 0.007 | inactive: -0.09 | inactive: 0.053 | inactive: -0.083 | inactive: 0.044 | inactive: -0.041 | inactive: 0.075 | inactive: -0.041 | inactive: 0.084 | inactive: 0.011 | 
PPID (UniProt Q08752) | inactive: -0.137 | inactive: -0.178 | inactive: 0.051 | inactive: 0.044 | inactive: -0.101 | inactive: 0.135 | inactive: 0.042 | inactive: 0.142 | inactive: -0.052 | inactive: 0.041 | inactive: 0 | inactive: 0.056 | inactive: -0.055 | inactive: -0.009 | inactive: 0.093 | inactive: 0.112 | inactive: -0.091 | inactive: -0.041 | inactive: 0.039 | 
POMK (UniProt Q9H5K3) | inactive: -0.047 | inactive: 0.007 | inactive: 0.021 | inactive: 0.022 | inactive: 0.024 | inactive: 0.168 | inactive: -0.052 | inactive: 0.089 | inactive: -0.056 | inactive: -0.025 | inactive: -0.019 | inactive: -0.101 | inactive: -0.017 | inactive: 0.077 | inactive: -0.037 | inactive: -0.02 | inactive: 0.04 | inactive: 0.067 | inactive: 0.077 | 
POLR3D (UniProt P05423) | inactive: 0.264 | inactive: -0.029 | inactive: 1.53 | inactive: -0.074 | inactive: -0.027 |  | inactive: 0.425 |  | inactive: -0.08 | inactive: -0.014 | inactive: 0.041 | inactive: 0.065 | active: 0.574 | inactive: -0.091 | inactive: -0.017 | inactive: 0.036 | inactive: -0.136 | inactive: -0.001 | inactive: 0.013 | 
POLR1A (UniProt O95602) | inactive: -0.027 | inactive: -0.151 | inactive: 0.148 | inactive: -0.138 | inactive: -0.011 | inactive: 0.064 | inactive: -0.089 | inactive: -0.015 | inactive: 0.115 | inactive: 0.248 | inactive: 0.075 | inactive: -0.05 | inactive: 0.063 | inactive: -0.076 | inactive: -0.007 | inactive: 0.037 | inactive: -0.008 | inactive: 0.069 | inactive: 0.078 | 
PNPLA6 (UniProt Q8IY17) | inactive: -0.029 |  | inactive: -0.006 | inactive: 0.223 | inactive: 0.047 | inactive: 0.127 | inactive: 0.021 | inactive: 0.046 | inactive: 0.01 | inactive: -0.008 |  | inactive: 0.206 | inactive: -0.019 | inactive: 0.019 | inactive: -0.355 | inactive: 0.034 | inactive: -0.041 | inactive: 0.095 |  | inactive: 0.073
POM121 (UniProt Q96HA1) | inactive: -0.043 | inactive: -0.024 | inactive: 0.083 | inactive: 0.126 | inactive: 0.045 | inactive: 0.069 | inactive: 0 | inactive: 0.075 | inactive: -0.002 | inactive: -0.03 | inactive: 0.055 | inactive: -0.018 | inactive: 0.146 |  | inactive: -0.027 | inactive: -0.002 |  | inactive: -0.01 | inactive: 0.003 | 
PLXNA3 (UniProt P51805) | inactive: -0.112 | inactive: -0.131 | inactive: 0.24 |  |  |  | inactive: -0.117 |  |  | inactive: 0.134 | inactive: 0.017 |  | inactive: -0.002 | inactive: -0.057 |  |  | inactive: 0.088 |  | inactive: 0.193 | 
POMT2 (UniProt Q9UKY4) | inactive: -0.043 |  | inactive: 0.144 |  | inactive: 0.02 | inactive: -0.084 | inactive: 0.06 | inactive: 0.088 | inactive: -0.003 | inactive: -0.023 |  | inactive: -0.07 | inactive: -0.072 |  | inactive: -0.208 |  |  | inactive: 0.2 |  | inactive: -0.013
POLRMT (UniProt O00411) | inactive: 0.074 | inactive: 0.005 |  |  | inactive: 0.068 |  | inactive: -0.037 |  | inactive: 0.108 | inactive: -0.005 | inactive: 0.071 |  |  |  |  |  |  |  |  | 
POLA2 (UniProt Q14181) | inactive: 0.035 | inactive: -0.055 | inactive: 0.051 | inactive: 0.096 | inactive: -0.254 | inactive: -0.125 | inactive: 0.039 | inactive: 0.06 | inactive: -0.038 | inactive: 0.086 | inactive: -0.001 | inactive: 0.015 | inactive: -0.02 | inactive: 0.005 | inactive: 0.046 | inactive: 0 | inactive: -0.015 | inactive: 0.018 | inactive: 0.051 | 

An excerpt of these results, as a markdown table:

| Target | log2 fold change (saracatinib) | log2 fold change (sotrastaurin) | log2 fold change (Tubastatin A) | log2 fold change [1] | log2 fold change (defactinib) | log2 fold change (rucaparib) | log2 fold change [2] | log2 fold change (encorafenib) | log2 fold change [3] | log2 fold change [4] | log2 fold change (filanesib) | log2 fold change (zotarolimus) | log2 fold change (idasanutlin) | log2 fold change (alisertib) | log2 fold change [5] | log2 fold change (gefitinib) | log2 fold change [6] | log2 fold change (lapatinib) | log2 fold change (pictilisib) | log2 fold change (alvocidib) |
| --- | --- | --- | --- | --- | --- | --- | --- | --- | --- | --- | --- | --- | --- | --- | --- | --- | --- | --- | --- | --- |
| PMVK (UniProt Q15126) | inactive: -0.021 | inactive: -0.003 | inactive: 0.229 | inactive: -0.051 | inactive: 0.02 |  | inactive: -0.039 |  | inactive: -0.368 |  | inactive: 0.198 | inactive: 0.083 | inactive: 0.064 | inactive: 0.047 |  | inactive: -0.189 | inactive: -0.144 |  | inactive: 0.073 |  |
| PLSCR1 (UniProt O15162) | inactive: 0.052 | inactive: 0.024 | inactive: 0.025 | inactive: -0.058 | inactive: 0.006 | inactive: -0.015 | inactive: 0.082 | inactive: -0.006 | inactive: 0.006 | inactive: -0.017 | inactive: 0.01 | inactive: -0.012 | inactive: 0.033 | inactive: -0.006 | inactive: -0.046 | inactive: 0.016 | inactive: 0.145 | inactive: 0.051 | inactive: 0.037 |  |
